The supplement of paper PMC10689618
This is one part of the list. Repeats are few or missing, and single values can be far off.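 Primary human fetal astrocytes engulfed labelled rat cortical synaptosomes, measured as a red/green ratio corrected for calcein live-cell signal and scaled to the plate median. Toxicity meant calcein falling over 30%; decreased phagocytosis meant below 70% of median above 5 µM.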

Assays:
Human fetal astrocytes [1] = assay: loss of total cells relative to no-compound high-control median (toxicity); higher = more toxic (fewer cells); conditions: 24 h
Human fetal astrocytes [2] = assay: synaptosome phagocytosis (pHrodo/calcein intensity ratio) relative to plate median of data wells; higher = more phagocytosis; conditions: 24 h

Row | SMILES | loss of total cells (Human fetal astrocytes [1]; 1.39 µM) [%] | loss of total cells (Human fetal astrocytes [1]; 2.78 µM) [%] | loss of total cells (Human fetal astrocytes [1]; 5.56 µM) [%] | loss of total cells (Human fetal astrocytes [1]; 11.11 µM) [%] | loss of total cells (Human fetal astrocytes [1]; 22.22 µM) [%] | synaptosome phagocytosis (Human fetal astrocytes [2]; 1.39 µM) [%] | synaptosome phagocytosis (Human fetal astrocytes [2]; 2.78 µM) [%] | synaptosome phagocytosis (Human fetal astrocytes [2]; 5.56 µM) [%] | synaptosome phagocytosis (Human fetal astrocytes [2]; 11.11 µM) [%] | synaptosome phagocytosis (Human fetal astrocytes [2]; 22.22 µM) [%]
1 | CCCCOc1ccc(CC(=O)NO)cc1 | 14.1 | 6.9 | 8.7 | 20.5 | 24.2 | 70.2 | 120 | 90.4 | 104 | 116
2 | CC(C)=CCOc1cc2oc(=O)ccc2cc1O | -24.3 | 0.7 | 38.2 | -2.6 | 29.3 | 77.9 | 98 | 133 | 71.9 | 107
3 | C=C1[C@H]2CC[C@@]3(C)[C@H](c4ccoc4)OC(=O)C[C@]13O[C@H]1C[C@H](O)C(C)(C)[C@H](CC(=O)OC)[C@]12C [3-DEOXY-3beta-HYDROXYANGOLENSIC ACID METHYL ESTER] | -22.1 | -1.3 | -19.8 | -3.9 | -10.7 | 124 | 84.9 | 93.2 | 98.1 | 85.3
4 | O=C([O-])CN(CCN(CC(=O)[O-])CC(=O)O)CC(=O)[O-].[Na+].[Na+].[Na+] | -3.9 | -8.5 | 0 | -5.5 | 32.5 | 119 | 115 | 96.4 | 122 | 133
5 | CCOc1ccc(Cc2nccc3cc(OCC)c(OCC)cc23)cc1OCC | 11.2 | 12.6 | 25.4 | 14.6 | 10.6 | 86.8 | 80.7 | 143 | 100 | 86.2
6 | CC1(O)CC2C(CC1O)C2(C)C (stereo not given) | 5.7 | -14.1 | 0 | 32.4 | 14.8 | 118 | 92.4 | 99 | 107 | 121
7 | CC(=O)N[C@@H](C=O)[C@@H](O[C@H](C)C(=O)O)[C@H](O)[C@H](O)CO | 10.5 | -0.4 | 11.6 | 16.3 | 12.1 | 77.1 | 116 | 105 | 84.3 | 102
8 | CCOC(=O)C(=O)C1(C(=O)OCC)Oc2cc(OC)cc(OC)c2C(=O)C1c1ccccc1 (stereo not given) | 24.3 | 7.3 | -24.4 | 31 | 9.3 | 123 | 112 | 91.8 | 117 | 117
9 | Nc1nc(=O)[nH]cc1F | 16.1 | -46 | 11.8 | -12.1 | 9 | 150 | 94.5 | 112 | 87.6 | 105
10 | NS(=O)(=O)c1cc2c(cc1C(F)(F)F)NCNS2(=O)=O | 18.1 | -22.7 | 0 | 16.4 | 34.3 | 106 | 135 | 122 | 102 | 125
11 | Cn1ccnc1S | -5 | -14.9 | -3.9 | -10.2 | 0.6 | 97.6 | 94 | 120 | 123 | 118
12 | C#C[C@]1(OC(C)=O)CC[C@H]2[C@@H]3CCC4=CC(=NO)CC[C@@H]4[C@H]3CC[C@@]21CC (mixture of isomers) | -29 | -31 | 8.7 | 6.9 | 6.5 | 121 | 95 | 118 | 78.9 | 99.4
13 | COc1ccc([C@@H]2CC(=O)c3c(O)cc(O[C@@H]4O[C@H](CO[C@@H]5O[C@@H](C)[C@H](O)[C@@H](O)[C@H]5O)[C@@H](O)[C@H](O)[C@H]4O)cc3O2)cc1O | -4.9 | 4 | -10.3 | 22.3 | 0.7 | 120 | 88.1 | 119 | 95.4 | 126
14 | CC[C@H]1OC(=O)[C@H](C)C(=O)[C@H](C)[C@@H](O[C@@H]2O[C@H](C)C[C@H](N(C)C)[C@H]2O)[C@](C)(OC)C[C@@H](C)C(=O)[C@H](C)[C@H]2N(CCCCn3cnc(-c4cccnc4)c3)C(=O)O[C@]12C | -21 | -23 | 11.2 | 44.9 | 7.2 | 96.4 | 105 | 105 | 131 | 126
15 | CN(C)CCN(Cc1ccccc1)c1ccccn1 | 1.5 | -8.5 | -6.3 | -7.8 | 2.7 | 96.5 | 88.9 | 90.2 | 128 | 106
16 | Cc1cc(=O)oc2c(O)c(O)ccc12 | -8.2 | 3.2 | 8.8 | 34.5 | 35.6 | 81.3 | 109 | 50.6 | 62.6 | 58.9
17 | C[C@@H]1O[C@@H](O[C@H]2[C@H](O[C@H]3CC[C@@]4(C)[C@@H](CC[C@]5(C)[C@@H]4CC=C4[C@@H]6CC(C)(C)CC[C@]6(C(=O)O[C@@H]6O[C@H](CO[C@@H]7O[C@H](CO)[C@@H](O[C@@H]8O[C@@H](C)[C@H](O)[C@@H](O)[C@H]8O)[C@H](O)[C@H]7O)[C@@H](O)[C@H](O)[C@H]6O)CC[C@]45C)[C@]3(C)CO)OC[C@H](O)[C@@H]2O)[C@H](O)[C@H](O)[C@H]1O | -19.7 | -6.1 | -6.6 | 5.4 | -0.7 | 122 | 134 | 114 | 95.4 | 104
18 | CC(=O)Oc1ccc2c(c1)CC[C@@H]1[C@@H]2CC[C@]2(C)[C@@H](O)CC[C@@H]12 | 0.8 | -10.1 | 13.5 | 15.6 | 19.8 | 100 | 116 | 116 | 93.1 | 99.4
19 | C[n+]1cc2c3c(ccc2c2ccc4cc5c(cc4c21)OCO5)OCO3 | -19.9 | 11.3 | 3.9 | 46.1 | 67.4 | 72.9 | 69 | 47.4 | 29 | 2.4

No new results follow: entries from further up.
Row | SMILES | loss of total cells (Human fetal astrocytes [1]; 1.39 µM) [%] | loss of total cells (Human fetal astrocytes [1]; 2.78 µM) [%] | loss of total cells (Human fetal astrocytes [1]; 5.56 µM) [%] | loss of total cells (Human fetal astrocytes [1]; 11.11 µM) [%] | loss of total cells (Human fetal astrocytes [1]; 22.22 µM) [%] | synaptosome phagocytosis (Human fetal astrocytes [2]; 1.39 µM) [%] | synaptosome phagocytosis (Human fetal astrocytes [2]; 2.78 µM) [%] | synaptosome phagocytosis (Human fetal astrocytes [2]; 5.56 µM) [%] | synaptosome phagocytosis (Human fetal astrocytes [2]; 11.11 µM) [%] | synaptosome phagocytosis (Human fetal astrocytes [2]; 22.22 µM) [%]
8 | CCOC(=O)C(=O)C1(C(=O)OCC)Oc2cc(OC)cc(OC)c2C(=O)C1c1ccccc1 (stereo not given) | 24.3 | 7.3 | -24.4 | 31 | 9.3 | 123 | 112 | 91.8 | 117 | 117
9 | Nc1nc(=O)[nH]cc1F | 16.1 | -46 | 11.8 | -12.1 | 9 | 150 | 94.5 | 112 | 87.6 | 105
